Where a sequence shows no end group, the ends are not given. Strings that start with PEPTIDE1 are HELM notation: dots part the residues, brackets hold end groups and non-standard residues.
Assay: general procedure: Fmoc solid-phase peptide synthesis
Settings: whole synthesis, HPLC with UV detection; MALDI-TOF MS for mass

Substance | final HPLC purity [%]
ARPNRAQDYNTN | >99
C-FRPNRAQDYNTN-C | >99
FAPNRAQDYNTN | >99
FRANRAQDYNTN | >95
FRPARAQDYNTN | >99
FRPNAAQDYNTN | >95
FRPNRAADYNTN | >95
FRPNRAQAYNTN | >95
FRPNRAQDANTNy | >95
FRPNRAQDYATN | >95
FRPNRAQDYNAN | >95
FRPNRAQDYNTA | >95
FRPNRAQDYNTN | >99
FRPNRAQDYNTN-K-DOTA | >99
PEPTIDE1{F.R.P.N.R.A.Y}$$$$V2.0 | >95
fRPNRAQDYNTN | >99
